Values quoted from earlier work as cited in US10793550B2, “4-piperidin-n-(pyrimidin-4-yl)chroman-7-sulfonamide derivatives as sodium channel inhibitors” (GENENTECH, INC., priority 2017, dated 2020).

Conditions: administered topically (Lidoderm patch); NDA 20-612; cited from earlier work

For `CCN(CC)CC(=O)Nc1c(C)cccc1C` [lidocaine], the plasma concentrations is given as “about 1 μM”.
